Reference: patent US8937152B2 (Italfarmaco SpA, priority 2007, dated 2015)
HELM strings list residues between dots; [ac] is acetyl, [am] amide, other brackets name non-standard units.

Assay: general procedure: Fmoc solid-phase peptide synthesis; Fmoc-Lys(Boc)-Trt(Cl)-DVB; HATU; DPPA/DIPEA for cyclisation in solution
Conditions: whole synthesis

PEPTIDE1{[Ser(Bn)].F.[Pro(4-OCONHC2H4NH2)].F.[3,8MNal].K}$PEPTIDE1,PEPTIDE1,1:R1-6:R2$$$V2.0
final HPLC purity: 98.2%

PEPTIDE1{[Tyr(Bn)].F.[Pro(4-OCONHC2H4NH2)].F.[2,5MhPhe].K}$PEPTIDE1,PEPTIDE1,1:R1-6:R2$$$V2.0
final HPLC purity: 99.0%

PEPTIDE1{[Tyr(Bn)].F.[Pro(4-OCONHC2H4NH2)].F.[3,8MNal].K}$PEPTIDE1,PEPTIDE1,1:R1-6:R2$$$V2.0
final HPLC purity: 99.1%

PEPTIDE1{[Tyr(Bn)].F.[Pro(4-OCONHC2H4NH2)].Y.[3,8MNal].K}$PEPTIDE1,PEPTIDE1,1:R1-6:R2$$$V2.0
final HPLC purity: 95.4%

PEPTIDE1{[Tyr(Bn)].F.[Pro(4-OCONHC2H4NHMe)].F.[3,8MNal].K}$PEPTIDE1,PEPTIDE1,1:R1-6:R2$$$V2.0
final HPLC purity: 94.5%

cyclo[Tyr(Bn)-Phe-Pro (4-OCONH(CH2)2NH2)-Phe-(D)Nal-Lys]
final HPLC purity: 99.5%

cyclo[Tyr(Bn)-Phe-Pro (4-OCONH(CH2)2NHCH3)-Phg-(D) Sty-Lys]
final HPLC purity: 97.8%

cyclo[Tyr(Bn)-Phe-Pro(4-OCONH(CH2)2NH2)-Phe-(D)hPhe-Lys]
final HPLC purity: 94.5%

cyclo[Tyr(Bn)-Phe-Pro(4-OCONH(CH2)2NH2)-Phe-(D,L)1,4-MNal-Lys] isomer A
final HPLC purity: 80.6%

cyclo[Tyr(Bn)-Phe-Pro(4-OCONH(CH2)2NH2)-Phe-(D,L)1,4-MNal-Lys] isomer B
final HPLC purity: 97.7%

cyclo[Tyr(Bn)-Phe-Pro(4-OCONH(CH2)2NH2)-Phg-(D)hPhe-Lys]
final HPLC purity: 98.8%
